# Measured values from PubChem BioAssay AID1487 (National Center for Advancing Translational Sciences (NCATS), 2009).
# The list shows a part of the results. Shown are side measurements of this screen, not its main read-out; they come without a call. Most of these compounds were active or inconclusive in the main read-out, so they are no random draw. Potencies come from curve fits of mixed quality, noted in brackets.
# Assay: qHTS Assay for Modulators of Lamin A Splicing
# Details: HeLa LMNA splicing GFP/RFP minigene ratio, 48 h
# Procedure, shortened: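 S3 HeLa cells stably expressing lamin A-EGFP splicing minigene plus DsRed2, 600 cells/well, 48 h compound exposure at 37C. Laser-scanning cytometry; analysed as GFP (500-530 nm)/RFP (575-640 nm) total intensity ratio; 0.5% DMSO vehicle.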
# [1] = measured here: GFP splicing reporter channel
# [2] = measured here: RFP viability control channel
Structure (SMILES),AC50 [1],AC50 [2]
CCN1C(=O)C(CC(=O)Nc2ccc(OC)cc2)N(CCc2ccc(F)cc2)C1=S (stereo not given),"14.1 µM [falling, partial curve]","11.2 µM [falling, partial curve, poor fit]"
CCC(C)(C)NC(=O)C1CCN(S(=O)(=O)c2ccc3c(c2)CCCN3C(C)=O)CC1,"0.0891 µM [falling, full curve]",
Clc1cnccn1,"1.26 µM [falling, partial curve, poor fit]",
CCCn1c(SCC(=O)Nc2ccccc2-c2ccccc2)nnc1-c1ccoc1C,,"22.4 µM [rising, single point]"
COCCCNC(=O)c1cc2cc(S(=O)(=O)N3CCCCC3)ccc2n1C,"0.141 µM [rising, full curve, poor fit]",
COC(=O)c1c(NC(=O)c2ccc(S(=O)(=O)N3CCC(C)CC3)cc2)sc2c1CCN(C)C2,"0.00316 µM [rising, full curve, poor fit]",
Cc1cc(N2CC(C)OC(C)C2)nc2ccccc12 (stereo not given),"0.0251 µM [falling, full curve, poor fit]",
CCCCNC(=O)CSc1nc2ccsc2c(=O)n1CCCC(=O)NCCc1ccc(S(N)(=O)=O)cc1,"0.0355 µM [rising, partial curve]",
Cc1cc(C)c(OCC(=O)Nc2ccccc2N2CCOCC2)c(C)c1,"28.2 µM [rising, single point]","22.4 µM [rising, single point]"
CCOC(=O)c1cc(-c2ccc(OC)cc2)nc2c1c(C)nn2CCC(N)=S,,"0.891 µM [rising, partial curve, poor fit]"
CCOC(=O)Cc1cc(-c2ccc(O)cc2)nc2ccc3ccccc3c12,,"6.31 µM [falling, single point]"
Cc1cc(C)c(NC(=O)C2CCN(c3nc4ccccc4n4cccc34)CC2)c(C)c1,"20 µM [falling, partial curve]","12.6 µM [falling, partial curve]"
COc1ccc(-n2ncc(C(=O)NCc3ccco3)c2C2CCN(C(=O)OC(C)(C)C)CC2)cc1,"0.00316 µM [rising, full curve, poor fit]",
CC(C)NC(=O)C1CCC(Cn2c(=O)c3sccc3n(Cc3ccc(F)cc3)c2=O)CC1 (stereo not given),,"0.158 µM [falling, full curve, poor fit]"
NC(=O)C1(N2CCCCC2)CCN(c2nc(-c3ccccc3)cs2)CC1,,"35.5 µM [rising, single point]"
COc1ccc2[nH]c(C)c(CCN(Cc3cccs3)C(=S)Nc3ccccc3)c2c1,,"11.2 µM [rising, partial curve]"
c1ccc(OCCOCCN2CCN(C(c3ccccc3)c3ccccc3)CC2)cc1,,"15.8 µM [rising, single point]"
O=C(NCC(c1cccnc1)N1CCc2ccccc21)c1cccc(Br)c1 (stereo not given),,"10 µM [rising, single point]"

# Sorted by formula weight (smallest number first): some entries from above.
Structure (SMILES),AC50 [1],AC50 [2]
COCCCNC(=O)c1cc2cc(S(=O)(=O)N3CCCCC3)ccc2n1C,"0.141 µM [rising, full curve, poor fit]",
CCOC(=O)c1cc(-c2ccc(OC)cc2)nc2c1c(C)nn2CCC(N)=S,,"0.891 µM [rising, partial curve, poor fit]"
CCN1C(=O)C(CC(=O)Nc2ccc(OC)cc2)N(CCc2ccc(F)cc2)C1=S (stereo not given),"14.1 µM [falling, partial curve]","11.2 µM [falling, partial curve, poor fit]"

# The list continues.

Structure (SMILES),AC50 [1],AC50 [2]
O=C(Nc1cccnc1)c1ccc(COc2ccccc2Br)o1,,"35.5 µM [rising, single point]"
O=C(CC1N=C2c3ccccc3N=C(SCc3ccc(F)cc3)N2C1=O)NCc1ccc2c(c1)OCO2 (stereo not given),"0.708 µM [rising, full curve, poor fit]",
CCCCNC1C(CC)C(CCC)C(C#N)(C#N)C1(C#N)C#N (stereo not given),,"12.6 µM [rising, partial curve]"
O=C(CSc1nc(-c2ccccc2)nc2ccccc12)Nc1cccc(C(=O)O)c1,,"14.1 µM [rising, partial curve]"
CC(NS(=O)(=O)c1ccc(Br)cc1)C(c1cccs1)N1CCOCC1 (stereo not given),,"1.58 µM [rising, partial curve, poor fit]"
COc1cccc(Cn2c(=O)c(-c3ccc(Cl)cc3)nc3cnc(OC)nc32)c1,"3.55 µM [falling, full curve]","3.98 µM [falling, full curve]"
COCCn1c(SCc2nc3ccccc3c(=O)[nH]2)nc2ccccc2c1=O,,"0.0224 µM [falling, full curve, poor fit]"
CC(C)(C)c1ccc(C(=O)N/N=C/c2cccc(Cl)c2)cc1,,"31.6 µM [rising, single point]"
CN(C)c1ccc(C2CC(c3cccc(NS(C)(=O)=O)c3)=NN2C(=O)c2ccccc2)cc1 (stereo not given),"0.708 µM [falling, full curve]","0.0708 µM [falling, full curve, poor fit]"
COc1ccc(OCCCc2c(C)n[nH]c2C)cc1,"12.6 µM [rising, single point]","22.4 µM [rising, partial curve]"
O=C(CNC(=O)c1ccco1)OCC(=O)c1ccccc1,,"7.08 µM [falling, partial curve, poor fit]"
CN(CC(=O)Nc1ccc(F)cc1)c1ccc(S(=O)(=O)N2CCCCC2)cc1[N+](=O)[O-],"10 µM [rising, partial curve, poor fit]","17.8 µM [rising, partial curve]"
O=C(O)c1ccccc1-c1ccccc1C(=O)Nc1cccc(O)c1,"0.355 µM [rising, single point]",
N#C/C(=C\c1ccc(N2CCOCC2)cc1)c1ccccc1,"14.1 µM [rising, partial curve]","35.5 µM [rising, partial curve]"
Cc1ccc(N2C(N)=C(C#N)C(c3cccs3)C3=C2CC(C)(C)CC3=O)cc1 (stereo not given),,"22.4 µM [rising, single point]"
O=C(c1ccccc1F)N1CCN(C2CCC(c3ccccc3)CC2)CC1 (stereo not given),"3.55 µM [falling, partial curve, poor fit]","28.2 µM [falling, partial curve]"
COc1ccccc1/C=C/C(=O)Oc1cccc2cccnc12,"2.24 µM [falling, partial curve]",
CCOC(=O)NC(=O)COC(=O)c1ccc(Sc2ncn[nH]2)c([N+](=O)[O-])c1,,"2.24 µM [rising, partial curve, poor fit]"
